The exact form of at least one protein or probe is not confirmed. At least one verdict was read from the data and is not stated in words by the source. Protein sequences can lack the tags named with them.
Target: T1, CtXrn2 deltaZnF N12C-BTFA N12C,del263-300 (Chaetomium thermophilum) (UniProt G0S058)
T1 sequence (looked up): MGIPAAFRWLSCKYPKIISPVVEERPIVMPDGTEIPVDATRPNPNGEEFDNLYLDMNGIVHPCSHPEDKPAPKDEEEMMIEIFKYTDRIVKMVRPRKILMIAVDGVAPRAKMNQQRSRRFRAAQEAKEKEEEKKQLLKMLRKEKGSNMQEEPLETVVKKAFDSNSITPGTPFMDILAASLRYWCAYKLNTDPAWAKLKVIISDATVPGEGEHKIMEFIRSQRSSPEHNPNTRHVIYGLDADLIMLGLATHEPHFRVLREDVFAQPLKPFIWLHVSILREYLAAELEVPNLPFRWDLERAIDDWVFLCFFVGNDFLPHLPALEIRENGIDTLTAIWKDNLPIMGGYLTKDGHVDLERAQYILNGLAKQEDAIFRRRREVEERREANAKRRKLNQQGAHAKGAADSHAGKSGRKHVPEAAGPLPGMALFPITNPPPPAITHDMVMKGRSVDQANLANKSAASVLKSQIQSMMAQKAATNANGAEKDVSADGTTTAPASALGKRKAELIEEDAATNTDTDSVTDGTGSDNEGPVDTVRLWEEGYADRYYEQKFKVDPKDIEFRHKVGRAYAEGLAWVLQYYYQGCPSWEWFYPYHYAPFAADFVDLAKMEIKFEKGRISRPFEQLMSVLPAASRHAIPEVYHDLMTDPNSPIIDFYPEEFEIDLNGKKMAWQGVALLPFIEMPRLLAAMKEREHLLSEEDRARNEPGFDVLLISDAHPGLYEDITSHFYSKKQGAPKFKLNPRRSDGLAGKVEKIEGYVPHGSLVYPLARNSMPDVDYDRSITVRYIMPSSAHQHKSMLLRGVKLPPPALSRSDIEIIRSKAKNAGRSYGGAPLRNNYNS
Test: NMR (19F CPMG)
Conditions: no Mg2+, helix dynamics unchanged; 5'-phosphate; NMR: 25 mM HEPES pH 7.3, 125 mM NaCl, 1 mM DTT, 5 mM MgCl2 unless noted; recombinant protein; residues 1-875; protein details: C-terminal His6 (LEHHHHHH); single-stranded DNA

AAAAA [pdA5]: binds.
